Results are given in words; binding and its absence hold for the method and conditions named. Binding seen in cells or lysates may run through a third protein. Some binding calls cover weakened binding; strength is not graded here. Tags and fused reporters may be left off the sequences shown.
Assays:
[1] = molecular target: Myc-tagged Dis2 (PP1) (fission yeast (Schizosaccharomyces pombe)) (UniProt P13681); assay: co-IP
[2] = molecular target: T1, Myc-tagged Sds21 (PP1) (fission yeast (Schizosaccharomyces pombe)) (UniProt P23880); assay: co-IP
T1 sequence: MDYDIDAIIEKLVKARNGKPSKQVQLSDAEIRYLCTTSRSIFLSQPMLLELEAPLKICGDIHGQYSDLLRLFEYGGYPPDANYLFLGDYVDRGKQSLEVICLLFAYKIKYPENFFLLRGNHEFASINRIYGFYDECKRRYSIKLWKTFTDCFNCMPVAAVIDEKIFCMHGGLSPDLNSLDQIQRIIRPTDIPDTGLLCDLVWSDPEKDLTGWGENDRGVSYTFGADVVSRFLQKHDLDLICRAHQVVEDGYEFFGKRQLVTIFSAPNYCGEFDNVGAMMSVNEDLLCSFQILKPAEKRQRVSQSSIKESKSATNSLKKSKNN

Sequences of proteins named here, by UniProt entry; tags and fusion partners are left off.
UniProt P13681: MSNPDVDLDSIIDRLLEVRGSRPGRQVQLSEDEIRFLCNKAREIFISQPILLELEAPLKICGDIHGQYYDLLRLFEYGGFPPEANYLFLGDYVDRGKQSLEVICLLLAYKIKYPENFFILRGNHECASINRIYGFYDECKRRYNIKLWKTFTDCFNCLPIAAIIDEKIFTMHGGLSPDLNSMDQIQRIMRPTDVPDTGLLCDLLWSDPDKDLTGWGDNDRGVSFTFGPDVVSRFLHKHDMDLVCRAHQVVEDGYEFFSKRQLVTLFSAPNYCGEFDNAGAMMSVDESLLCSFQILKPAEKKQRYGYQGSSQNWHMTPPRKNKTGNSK

binding [1]: binds
binding [2]: binds
B1: Flag-tagged Rif1 (wild type) (protein, UniProt Q96UP3 1-1400)
chain: MTKEIAVKEASNMLLQEPSTPSSQAVGLSSSPSSSIRKKKVNFSSELENSPGGNRPSFGLPKRGILKTSTPLSSIKQPNFQSFEGNESEKETSLQELQSSFCSGIENLQHVEKSARIETYSKLSSFLKIYTPSLPEDPIFPLLNQLCNFLLSDRCSNNSEGSPDFQLNTQANKLLSILLWHPTISSHIQPETATVFIEQSLNFLEGPKLTKALAAQHLHLLSCQKCPLSIHPLCNRILDVCFNISFPSLVIGQERLAVLTKILSQFPLEFSRRVVDWAPYLLACLVDASRPIREKALLLALDLSKHLYHDKLVARTILANFRSDIKGTAFVLIMTEQFEKLVIEEDDGVYVAHAWAAIISVLGGARISSWEYFNTWLKIIQLCFNSMNPLTKCAAQTSWIRLIHEFSLSETLTQATKRLTLLCQPISMVLGSRNLPTVKNAAMTTLIALIYACLRPGISDAMLSLLWDSVIVNILEKCALKNEVTIFESSNILLALFNTLSNGVWKDDRLVCRESVEAKELPKLNPVWVRANCSRTIEPVKTLLLLAKPDHTVKTTTPARKQHIRGLSYEQSSSVWSTYIKCLASAGQKEIKRSVETGRAICCICSSLHKFLYSKSIRKDELYVERVSRFALMVKSAIEAFGINTFVEASYLVSDNQLVLIDQTKAIDSYDHVPISPLIYLLHSLALLTNGTLFSTVHAAYSSILSSIEEYHLRFGLKLMLLWDCVSPLSDDGTLVLARVLVSHEVSRLTSEALLSELKSRNGNNSVEEGFSEEERSILLKLLSWNVKFCSISDAGSVNNLLQQYFTAIYKFEGCGSVFPFVVDPFTTILDDVLSFEANKVYSFAISLMKVSTFESCTKELPPVTLPENIRQHLDSYNHMVELYNTLLQRLSSSDQVDLQCRYLHELSEFIKKIPKEFIFHTICKLSKGLIPCFLMNAFPQLEKSTTLQKSCTNFCILILQLLLNSTATASNILESLSPLLTSGLKSISKEVVLAAIKFWNQVFGKFESEEYPIELQKTISYLSKTYIILLPFQSLCPGGKQANHQSSEKMSDILKGVDELRSVSKNGPYASSQDKGEKTTEFSGPGKPNNDNYIQIASVQELDDSSKGKAGKMPASKKNKRQKGDVKKIDETKNEATDMEESLTTPSGKVNKEVIVDDTSLRDEAIVPDKAIDVADNSNALLKENISSQSNRKADNNGTPSVNNSFTTANNDECSKENSQIEPEGQTASREGVLSTPRSTRKKRKLGRKSQSSNVNKEVAISEVSATLENVEVIERHGISEQGQNLDESACVLTNESSLSQTEIPEEKTENETTAVNGFENSKKRQFSSLLSGSIDTNNESNKVSSVEFDKSGPQDIIQSMTEATFEIEKNIQDLKSEEVQKLSDLLMRLQRAILSRIA

— article doi:10.1101/2022.05.13.491604
